No constants are given. Whether binding was seen depends on the method and setting. For part of these data: Binding seen in cells or lysates may run through a third protein. Some binding calls cover weakened binding; strength is not graded here.
Assays:
[1] = target: LTβ receptor (LTβR) (mouse) (UniProt P50284); assay: co-IP with anti-LTβR from unstimulated LEC lysates, anti-TRAF3 immunoblot
[2] = target: LTβ receptor (LTβR) (mouse) (UniProt P50284); assay: co-IP with anti-LTβR from LEC lysates, anti-TRAF3 immunoblot
[3] = target: LTβ receptor (LTβR) (mouse) (UniProt P50284); assay: model legend referring to co-IP / blots of FIG. 3B, 3C, 3E
[4] = target: LTβ receptor (LTβR) (mouse) (UniProt P50284); assay: biochemical analyses of LEC (FIG. 1 and FIG. 3)
[5] = target: LTβ receptor (LTβR) (mouse) (UniProt P50284); assay: co-IP of LTβR complex from LEC
[6] = target: LTβ receptor (LTβR) (mouse) (UniProt P50284); assay: co-IP of LTβR complex from LTβR-stimulated LEC
[7] = target: LTβ receptor (LTβR) (mouse) (UniProt P50284); assay: model legend referring to the filing's blots
[8] = target: LTβ receptor (LTβR) (mouse) (UniProt P50284); assay: co-IP with anti-LTβR from lysates of anti-LTβR mAb-stimulated LEC, anti-TRAF2 immunoblot

The chains behind the UniProt entries cited, without tags or fusion partners. Residues count along the entry.
UniProt P50284, residues 31-415: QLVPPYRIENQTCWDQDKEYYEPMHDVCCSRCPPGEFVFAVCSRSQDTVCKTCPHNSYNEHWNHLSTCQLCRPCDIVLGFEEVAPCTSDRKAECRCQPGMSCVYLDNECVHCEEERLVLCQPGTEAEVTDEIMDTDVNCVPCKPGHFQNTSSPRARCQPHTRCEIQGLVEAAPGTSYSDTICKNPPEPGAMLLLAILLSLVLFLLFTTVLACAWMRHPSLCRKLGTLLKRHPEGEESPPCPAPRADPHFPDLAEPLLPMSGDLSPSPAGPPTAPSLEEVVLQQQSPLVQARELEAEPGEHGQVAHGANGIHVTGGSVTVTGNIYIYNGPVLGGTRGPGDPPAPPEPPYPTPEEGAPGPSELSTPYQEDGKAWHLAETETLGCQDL

Measured: binding

B1: TNF receptor-associated factor-3 (TRAF3) (protein, mouse, UniProt Q60803 1-567, looked up)
chain: MESSKKMDAAGTLQPNPPLKLQPDRGAGSVLVPEQGGYKEKFVKTVEDKYKCEKCRLVLCNPKQTECGHRFCESCMAALLSSSSPKCTACQESIIKDKVFKDNCCKREILALQVYCRNEGRGCAEQLTLGHLLVHLKNECQFEELPCLRADCKEKVLRKDLRDHVEKACKYREATCSHCKSQVPMIKLQKHEDTDCPCVVVSCPHKCSVQTLLRSELSAHLSECVNAPSTCSFKRYGCVFQGTNQQIKAHEASSAVQHVNLLKEWSNSLEKKVSLLQNESVEKNKSIQSLHNQICSFEIEIERQKEMLRNNESKILHLQRVIDSQAEKLKELDKEIRPFRQNWEEADSMKSSVESLQNRVTELESVDKSAGQAARNTGLLESQLSRHDQMLSVHDIRLADMDLRFQVLETASYNGVLIWKIRDYKRRKQEAVMGKTLSLYSQPFYTGYFGYKMCARVYLNGDGMGKGTHLSLFFVIMRGEYDALLPWPFKQKVTLMLMDQGSSRRHLGDAFKPDPNSSSFKKPTGEMNIASGCPVFVAQTVLENGTYIKDDTIFIKVIVDTSDLPDP
binds: [1] | [2] | [3] | [4] | [5]

B2: TNF receptor-associated factor 2 (TRAF2) (protein, mouse, UniProt P39429 2-501, looked up)
chain: AAASVTSPGSLELLQPGFSKTLLGTRLEAKYLCSACKNILRRPFQAQCGHRYCSFCLTSILSSGPQNCAACVYEGLYEEGISILESSSAFPDNAARREVESLPAVCPNDGCTWKGTLKEYESCHEGLCPFLLTECPACKGLVRLSEKEHHTEQECPKRSLSCQHCRAPCSHVDLEVHYEVCPKFPLTCDGCGKKKIPRETFQDHVRACSKCRVLCRFHTVGCSEMVETENLQDHELQRLREHLALLLSSFLEAQASPGTLNQVGPELLQRCQILEQKIATFENIVCVLNREVERVAVTAEACSRQHRLDQDKIEALSNKVQQLERSIGLKDLAMADLEQKVSELEVSTYDGVFIWKISDFTRKRQEAVAGRTPAIFSPAFYTSRYGYKMCLRVYLNGDGTGRGTHLSLFFVVMKGPNDALLQWPFNQKVTLMLLDHNNREHVIDAFRPDVTSSSFQRPVSDMNIASGCPLFCPVSKMEAKNSYVRDDAIFIKAIVDLTGL
binds: [6] | [7] | [8] | [4]
